According to PubChem BioAssay AID504594 (Broad Institute, 2011):
Out of some 2,000 compounds screened, fewer than 10 were called active.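 How the source made its calls: active means growth inhibition of at least 75% in every replicate, which also brings the mean inhibition to 75% or more; inconclusive means mean inhibition 75% or more but some replicate under 75%; inactive means the rest.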 Some of the results follow.

Test: growth inhibition of PfHsp90-dependent yeast, primary screen, antimalarial PfHsp90 inhibitor project, S. cerevisiae, BacTiter-Glo luminescence (AID 504594);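 further: 0% = DMSO neutral control wells and 100% = 20 µM radicicol control wells; higher value means stronger growth inhibition because the sign is flipped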
Details: S. cerevisiae expressing PfHsp90, BacTiter-Glo growth, 48 h; at 9.4 µM; active compounds read high

Growth inhibition, inactive:
CCNC(=O)C(Cc1ccccc1)NC(=O)OCc1ccccc1 (centres undefined) -8.56%, O=C1OC(=O)C2C1[C@@H]1CC[C@H]2O1 (some centres undefined) -14%, COc1ccc2c(CCNC(=O)c3ccc([N+](=O)[O-])cc3)c[nH]c2c1 6.57%, Cc1cccc(Oc2coc3cc(OC(=O)c4cncc(Br)c4)ccc3c2=O)c1 -0.933%, COc1ccc2c(c1)CC[C@@H]1[C@@H]2CC[C@]2(C)C(=O)CC[C@@H]12 -5.47%, OC(CCN1CCCCC1)(c1ccccc1)C1CCCCC1 (centres undefined) -3.01%, O=C(CN1C(=O)C2CCc3[nH]c4ccccc4c3C2C1=O)N1CCCC1 (centres undefined) -10.5%, CCOC(=O)c1cc2c(nc1N)CC(C)(CC)OC2 (centres undefined) -2.94%, Nc1cc(-c2ccncc2)c[nH]c1=O -1.29%, Cc1cccc(C2=N/C(=C\c3cccnc3)C(=O)O2)c1 10.1%, COc1ccc(C2C(C(=O)c3ccco3)=C(O)C(=O)N2CC2CCCO2)cc1 (centres undefined) 7.74%, CS(=O)c1ccccc1O (centres undefined) 14.9%, COC(=O)c1ccc(COc2ccc3c(C)c(C)c(=O)oc3c2C)o1 -0.273%, CCCC(=O)Nc1ccccc1NC(C)=O -6.63%, COc1ccc(CNC(=O)c2cc3c(=O)n4ccccc4nc3n(Cc3cccnc3)c2=N)cc1 -25.2%, OCCOCCN1CCN(C(c2ccccc2)c2ccc(Cl)cc2)CC1 (centres undefined) 1.21%, C[C@]12CCC(=O)C[C@@H]1CC[C@@H]1[C@@H]2CC[C@]2(C)C=CC[C@@H]12 8.79%, COc1ccc(OC)c(NC2=C(Cl)C(=O)N(Cc3ccccc3)C2=O)c1 -7.45%, COc1ccc(CNC(=O)C2CCCN2C)cc1OC (centres undefined) -16.4%, COc1ccccc1Oc1c(C)oc2c(CN3CCN(CCO)CC3)c(O)ccc2c1=O 3.84%, COc1ccccc1N=CC1=C(O)CC(c2ccccc2)CC1=O (centres undefined) 5.83%, CCOC(=O)[C@H](CCc1ccccc1)N[C@@H](C)C(=O)N1CCC[C@H]1C(=O)O -1.47%, O=C(Nc1ccc(N2CCOCC2)cc1)c1ccc(-c2ccccc2[N+](=O)[O-])o1 -30.5%, C[C@]12CC[C@@H]3c4ccc(O)cc4CC[C@H]3[C@@H]1C[C@@H](O)[C@@H]2O[C@@H]1O[C@H](C(=O)O)[C@@H](O)[C@H](O)[C@H]1O -0.654%, Cc1ccc2c(c1)C1(C(=O)N2)N2CCCC2C(C(=O)c2ccc3ccccc3c2)C12C(=O)Nc1ccccc12 (centres undefined) -4.22%, CC(C)=CCC/C(C)=C/CC/C(C)=C/CC/C(C)=C/CC1=C(C)C(=O)c2ccccc2C1=O -2.7%, CCC(=O)Nc1ccc(C(=O)N2CCN(C(=O)c3ccco3)CC2)cc1 -0.0205%, COC(=O)c1ccc(OCCCCN2CC(C)OC(C)C2)cc1 (centres undefined) 23.6%, Cc1ccc2c(c1)C1OCCC1C1N2C(=O)C2C(C(=O)O)C3C=CC21O3 (centres undefined) -2.86%, O=C(Nc1ccc(F)c([N+](=O)[O-])c1)c1ccc2c(c1)OCCO2 -4.38%, CC(C)NS(=O)(=O)c1ccc(OCC(=O)Nc2cccc(F)c2)cc1 4.62%, CCOC(=O)C1(Cc2cccc(Cl)c2)CCCN(C2CCN(C(C)=O)CC2)C1 (centres undefined) -10.8%, COC(=O)c1cc(-c2ccc(C)o2)nc2ccccc12 -1.73%, CN(C)CC/C=C1\c2ccccc2COc2ccccc21 1.89%, CC1(C)c2ccccc2N2CC(=O)NC21/C=C/c1ccco1 (centres undefined) -0.842%, CC(C)CCc1noc(CN2CCC(CCN3CCCC3=O)CC2)n1 4.25%, Cc1oc2c(C)c3oc(=O)c4c(c3cc2c1C)CCCC4 5.48%, CCCCC(=O)O[C@]1(C(=O)CO)CC[C@H]2[C@@H]3CCC4=CC(=O)CC[C@]4(C)[C@H]3[C@@H](O)C[C@@]21C 2.16%, CCc1cccc2c3c([nH]c12)C(CC)(CC(=O)O)OCC3 (centres undefined) 0.132%, COc1ccccc1C(O)c1nccn1C (centres undefined) -25%, COc1ccc2c(c1)[N+](C)(C)C(C)(C)C=C2C -3.15%, C#CCN1C(=O)C(O)(c2c(C)[nH]c3ccccc23)c2ccccc21 (centres undefined) 3.95%, CN1[C@@H](CC(=O)c2ccccc2)CCC[C@H]1C[C@H](O)c1ccccc1 -6.4%, c1ccc2[nH]c(-c3cscn3)nc2c1 -6.85%, CCC(C)NCCOCCOc1ccc(Cl)cc1Br (centres undefined) 15.6%, COc1cc(NC(=S)NN2CCN(C)CC2)cc(OC)c1OC -13.7%, CC1=NN(C(=O)c2ccc(Br)cc2)C(O)(c2ccccc2)C1 (centres undefined) -4.64%, CC12CC(c3ccccc3O1)C(C(=O)N1CCOCC1)C(=O)N2 (centres undefined) -11.3%, O=C(c1ccc(Cl)cc1)C1CCCN(Cc2ccc(Oc3ncccn3)cc2)C1 (centres undefined) -7.65%, O=C(OCCNC(=O)c1ccc2ccccc2n1)c1ccc(F)cc1 -10%, CC(NC(=O)c1ccc(OC2CCN(Cc3ccccn3)CC2)cc1)c1ccccc1 (centres undefined) -1.57%, COc1ccc(C)cc1S(=O)(=O)Nc1ccc(F)cc1 1.39%, O=C(OCCN1CCCC1)C1(c2ccccc2)CCCC1 -2.1%, CC(C)=CCCC(C)CN1CCC(N2CCC(C(=O)N3CCCC3)CC2)CC1 (centres undefined) -1.55%, COC(=O)c1ccc(NC(=O)C23CCC(C)(C(=O)O2)C3(C)C)cc1 (centres undefined) 9.07%, C[C@]12CC[C@@H]3c4ccc(O)cc4CC[C@H]3[C@@H]1CCC2=O 0.229%, OC(C#CCN1CCCC1)(c1ccccc1)c1cccnc1 (centres undefined) -0.115%, CN=C1c2cc3cc(OC)ccc3n2CCN1C 2.8%, Cc1cccc(CN2CCN(C(c3ccccc3)c3ccc(Cl)cc3)CC2)c1 (centres undefined) -15.4%
